# Patent US20240108725A1, “METHOD FOR TREATING CANCER AND SYSTEM FOR SAME” (OTSUKA MEDICAL DEVICES CO., LTD, priority 2020, published 2024)
# Structures can show the parent of a compound that is named as a salt. At least one structure is not confirmed: it was looked up by name or label, or the drawing left a doubt.
# Experiments:
# [1] = subcutaneous administration; had been reported; cited from earlier work
# C6 cells = assay: Tumor volume after subcutaneous transplantation of C6 cells in rats given PDT-treated or anti-cancer agent-treated cells intravenously, Example 2; type: in vivo, rat; conditions: intravenous administration of treated C6 cells to rats
# Protocol: C6 cells were cultured in 2.5% FBS/F-12K medium supplemented with 5-ALA to a final concentration of 1 mM in a 5% CO2 incubator at 37° C. for 24 hours. After the culture, the cells were removed with 0.25% trypsin-EDTA solution, and the collected cells were adjusted to 2×10^7 cells/mL with PBS. The cell suspension thus prepared was injected into a Tygon tube (inner diameter: 0.79 mm), wrapped around a light irradiator (Otsuka Electronics Co., Ltd.), and irradiated with light having a wavelength of 630 nm and an irradiation energy density of 7.5 J/cm^2 (illuminance of 124.5 mW/cm^2 for 1 minute). The treated cells were pooled and the irradiation was repeated until the required dose was obtained. The irradiated cells were divided into three equal parts, and one was administered to F344 rats (8 week-old at the start of study, male, Charles River Laboratories Japan Inc.) at 0.5 mL (1×10^7 cells) per animal from the tail vein under isoflurane anesthesia (PDT iv group, 3 animals). […]
# On the 4th, 6th, 8th and 10th days after preparation of the cancer-bearing rats (Day 4, 6, 8, 10), the major axis and the minor axis of the tumor were measured by using a caliper, and the tumor volume was calculated according to the following formula. […]
SMILES,immunostimulatory effects [1],antitumor immunity (C6 cells)
"COc1cccc2c1C(=O)c1c(O)c3c(c(O)c1C2=O)C[C@@](O)(C(=O)CO)C[C@@H]3O[C@H]1C[C@H](N)[C@@H](O)[C@H](C)O1 [EPI, epirubicin hydrochloride]",immunostimulatory effects,not induced
"O=C1c2c(O)ccc(O)c2C(=O)c2c(NCCNCCO)ccc(NCCNCCO)c21 [MTX, mitoxantrone dihydrochloride]",–,not induced
